Tags and fusion partners may be left off the protein sequences shown.

Data set [1] has as its target T1, 6His-ArsR2 (Pseudomonas putida KT2440) (UniProt Q88JD1).
T1 sequence (looked up): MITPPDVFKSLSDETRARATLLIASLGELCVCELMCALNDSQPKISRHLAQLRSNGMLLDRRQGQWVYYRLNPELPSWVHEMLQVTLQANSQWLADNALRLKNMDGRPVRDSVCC
The experiment in a line: EMSA. Conditions: no arsenite, 'gross KD'; EMSA: TRRG buffer (20 mM Tris-HCl pH 7.5, 50 mM KCl, 2 mM beta-mercaptoethanol, 10% glycerol), BSA, 25 ug/ml herring sperm DNA, 0.3 nM probe, 20 min 30 C; recombinant protein; residues 1-115; protein details: N-terminal MRGSHHHHHHGIL (pQE32); label: 32P 3' end label (Klenow fill-in at EcoRI end); probe letters rebuilt from the primers and the genome.

Data set [2] addresses T1, 6His-ArsR2 (Pseudomonas putida KT2440). The experiment in a line: competition with a labelled probe. Conditions: unlabeled same-sequence probe competed (data not shown); EMSA: TRRG buffer (20 mM Tris-HCl pH 7.5, 50 mM KCl, 2 mM beta-mercaptoethanol, 10% glycerol), BSA, 25 ug/ml herring sperm DNA, 0.3 nM probe, 20 min 30 C; recombinant protein; residues 1-115; protein details: N-terminal MRGSHHHHHHGIL (pQE32); label: 32P 3' end label (Klenow fill-in at EcoRI end); probe letters rebuilt from the primers and the genome.

The target is the same in data set [3]. The experiment in a line: DNase I footprinting. Conditions: protected -36 to +23, 25-250 nM protein; footprinting: TRRG, 1 mg/ml BSA, 2 nM probe, 37 C; recombinant protein; residues 1-115; protein details: N-terminal MRGSHHHHHHGIL (pQE32); label: 32P 3' end label (Klenow fill-in at EcoRI end); probe letters rebuilt from the primers and the genome.

Consider “AGAGGATCCTGGCGATAAGCAGAGTGGCGCGAGCGCGGGTTTCGTCAGAGAGGCTTTTGAAGACATCGGGCGGTGTGATCATGGGGGTGCCTGTACATACGGAAAACCGAATATACGTATTTCCATATGTGCTAGCAAGCCTTCCTGGGCTTGTGCGCTTGCAGCTCGCCGTCGCCACGCCCTTCGGTCGACAAAAGCAGGGTTTTGGCAGGCTTCAGACGCTGATGGCAATGCAGGGTGTATAGTGCTTGCTCGGGTGACTGTCGTTCAGTGGCTCATAACCGAGATGCCAACATGAATT (double strand) [Pars2 probe]”, for which the Kd in data set [1] stood at 0.5 µM. Moreover, the binding result in data set [2] and in data set [3] was “binds” each time.

The values above are taken from PMC7994332, “A Bifan Motif Shaped by ArsR1, ArsR2, and Their Cognate Promoters Frames Arsenic Tolerance of Pseudomonas putida” (Frontiers in Microbiology, 2021).
